Measurements as given in PMC9468182.
No constants are given. Whether binding was seen depends on the method and setting. In cells and extracts the contact can be indirect. Some results given as binding are weak or reduced against the parent protein; the word gives no strength. Where a sequence is shown, tags or fusion partners need not be part of it.

Biological target: Syn1-his (mouse) (UniProt O88935)
Experiment: co-IP; Syn1-his and ABHD17a-flag coexpressed in HEK-293T cells; Syn1 immunoprecipitated

- binding: binds
B1: ABHD17a-flag (enzyme, UniProt Q99JW1 1-310)
chain: MNGLSVSELCCLFCCPPCPGRIAAKLAFLPPDPTYSLVPEPEPGPGGAGAAPSGPLRTSAATPGRWKIHLTERADFQYGQRELDTIEVFVTKSARANRIACMYVRCVPGARYTVLFSHGNAVDLGQMCSFYVGLGTRIGCNIFSYDYSGYGISSGRPSEKNLYADIDAAWQALRTRYGISPDSIILYGQSIGTVPTVDLASRYECAAVVLHSPLTSGMRVAFPDTKKTYCFDAFPNIEKVSKITSPVLIIHGTEDEVIDFSHGLALYERCPKAVEPLWVEGAGHNDIELYSQYLERLRRFISQELPSQRA
